Measured values taken from PubChem BioAssay AID504847 (National Center for Advancing Translational Sciences (NCATS), 2011).
About 3,700 (0.93%) of roughly 400,000 compounds were called active. This list was built around the results that the source calls inconclusive (neither active nor inactive); the mix of calls is not that of the screen. Calls follow the shape of the dose curve; as a rule, active = well fitted inhibition curve with a large enough effect; inconclusive = small, poorly fitted or top-dose-only effect, or another doubt; inactive = no such curve, though single readings can be large or run the other way. Where the call is inconclusive, the potency comes from a doubtful curve fit.

Protein sequences, listed by entry. Tags and fused reporters are not part of them. Lines headed by an entry give the natural chain unless they say otherwise; changes in a name come on top.
UniProt P11473: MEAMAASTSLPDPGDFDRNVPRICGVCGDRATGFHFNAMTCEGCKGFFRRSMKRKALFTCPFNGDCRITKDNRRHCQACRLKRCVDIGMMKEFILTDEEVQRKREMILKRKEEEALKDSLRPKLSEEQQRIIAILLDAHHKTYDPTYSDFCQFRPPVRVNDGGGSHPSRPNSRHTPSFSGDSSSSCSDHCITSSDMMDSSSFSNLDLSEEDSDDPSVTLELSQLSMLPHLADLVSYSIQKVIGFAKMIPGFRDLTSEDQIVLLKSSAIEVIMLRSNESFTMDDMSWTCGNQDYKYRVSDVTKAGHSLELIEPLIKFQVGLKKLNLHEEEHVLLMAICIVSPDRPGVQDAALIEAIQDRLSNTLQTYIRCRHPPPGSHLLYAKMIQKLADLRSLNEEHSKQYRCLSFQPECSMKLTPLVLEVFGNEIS

Molecular target: Vitamin D3 receptor (Homo sapiens) (UniProt P11473)
Experiment: Inhibitors of the vitamin D receptor (VDR): qHTS
Conditions: VDR-SRC2-3 peptide fluorescence polarization, 2 h; max response, negative = inhibition: active compounds read low
Procedure, shortened: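 Signal is fluorescence polarization, reporting how far test compounds block the interaction of VDR with the SRC2-3 coregulator peptide after a 2 h room-temperature incubation.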
% is scaled to controls: 0 for no effect and ±100 for the full control effect; potency is read from the fitted curve at half-maximal effect.

Compound	Potency	max response, negative = inhibition
COc1ccccc1CNc1ncncc1-c1ccc(N(C)C)cc1	inconclusive: 79.4 µM [inhibitor, partial curve]	–
COc1ccccc1CN(Cc1cc2cc3c(cc2[nH]c1=O)OCCO3)Cc1nnnn1Cc1ccco1	inconclusive: 25.1 µM [inhibitor, single point]	–
COc1cc(=O)[nH]c(SCC(=O)Nc2nc3c(s2)CCCC3)n1	inconclusive: 50.1 µM [inhibitor, partial curve]	–
O=C(O)/C=C/C(=O)Nc1ccc(C2(c3ccc(NC(=O)/C=C/C(=O)O)cc3)c3ccccc3-c3ccccc32)cc1	active: 25.1 µM	–
O=C(/C=C/c1ccccc1O)c1ccc(Cl)cc1	active: 35.5 µM	–
Oc1cccc(CN2CCOCC2)c1O	inconclusive: 89.1 µM [inhibitor, single point]	–
Cc1ccc(C(c2cc(Cl)c3cccnc3c2O)N2CCN(C)CC2)cc1 (stereo unspecified)	active: 44.7 µM	–
COc1ccccc1C(=O)Nc1cc(C)on1	inconclusive: 79.4 µM [inhibitor, single point]	–
CCOC(=O)c1ccc(-n2c(=S)sc3c(=O)[nH]c(C)nc32)cc1	active: 50.1 µM	–
CC1=NN(c2cccc(C(=O)O)c2)C(=O)/C1=C\C=C/c1ccccc1	inconclusive: 14.1 µM [inhibitor, partial curve, poor fit]	–
Cc1cc(C)n(C(C[N+](=O)[O-])c2ccc(Cl)cc2)n1 (stereo unspecified)	inconclusive: 89.1 µM [inhibitor, partial curve, poor fit]	–
CC(C)C(=O)N1CCN(c2ccc([N+](=O)[O-])c(NC(C)c3ccccc3)c2)CC1 (stereo unspecified)	inconclusive: 89.1 µM [inhibitor, single point]	–
NC(=O)CSc1nnc(-c2cc(-c3ccc(Cl)cc3)nc3ccccc23)o1	–	inactive: 7.19%
N/C(=N\OC(=O)c1cc(Cl)ccc1Cl)c1ccccn1	inconclusive: 44.7 µM [inhibitor, single point]	–
COCCNC(=S)NCc1cccs1	–	inactive: -4.39%
Cc1cccc(NC(=O)CN2CCN(C(=O)CN3C(=O)NC4(CCCCC4C)C3=O)CC2)c1C (stereo unspecified)	–	inactive: 5.19%
CN(C)c1ccc2c(O)cc(=O)n(C)c2c1	active: 31.6 µM	–
O=C1CC(=O)N(Cc2cccs2)C(=O)N1	inconclusive: 50.1 µM [inhibitor, partial curve]	–
CCN1C(=O)N/C(=C/c2ccc(C)o2)C1=O	active: 89.1 µM	–
C=CCC(Nc1ccccc1)C12C=CC(O1)C(C(=O)OC)=C2C(=O)OC (stereo unspecified)	inconclusive: 25.1 µM [inhibitor, full curve]	–
C/C(=N\NC(=O)c1cccc(N/N=C(\C)c2ccccc2)c1)c1ccccc1	inconclusive: 70.8 µM [inhibitor, single point]	–
CC(NC(=O)c1ccco1)c1nc(-c2ccccc2Cl)no1 (stereo unspecified)	–	inactive: -1%

Compound	Potency	max response, negative = inhibition
Cc1cc(=O)oc2cc(OCC(=O)OCC(=O)N3CCC(C)CC3)ccc12	–	inactive: -8.28%
BrC(=C\c1ccccc1)/C=N/Nc1nc(N2CCOCC2)nc(N2CCOCC2)n1	inconclusive: 89.1 µM [inhibitor, single point]	–
CCOC(=O)c1c[nH]c2c(C(F)(F)F)cccc2c1=O	–	inactive: 6.31%
COc1cc(/C=C/[N+](=O)[O-])ccc1OC(=O)c1cc2ccccc2oc1=O	inconclusive: 50.1 µM [inhibitor, partial curve, poor fit]	–
CCCCN=C1NN=C(c2ccc(C)c(C)c2)CS1	inconclusive: 28.2 µM [inhibitor, single point]	–
O=C(NC1CC1)c1ccc(NC(=O)C2CCCCC2)cc1	inconclusive: 70.8 µM [inhibitor, partial curve, poor fit]	–
O=C(Cc1c[nH]c2ccccc12)Nc1ccc(N2CCOCC2)cc1	inconclusive: 100 µM [inhibitor, partial curve, poor fit]	–
C[C@H](Cc1nc2c(cnn2-c2ccccc2Cl)c(=O)[nH]1)C(F)(F)F	inconclusive: 89.1 µM [inhibitor, single point]	–
CCOc1cc(/C=C2\C(=O)N(c3ccc(C(N)=O)cc3)N=C2C)ccc1OC(=O)c1cccs1	active: 50.1 µM	–
CCN(CC)c1ccc(NC(=S)Nc2ccc(F)cc2)cc1	inconclusive: 50.1 µM [inhibitor, partial curve, poor fit]	–
FC(F)(F)c1ccccc1-c1ccc2ncnc(NC3CC3)c2c1	inconclusive: 39.8 µM [inhibitor, partial curve]	–
COCCN=C1NN=C(c2ccc(C)c([N+](=O)[O-])c2)CS1	inconclusive: 39.8 µM [inhibitor, single point]	–
COc1ccc(C(=O)O/N=C(/c2ccccc2)c2ccncc2)cc1	inconclusive: 7.08 µM [inhibitor, partial curve, poor fit]	–
Fc1ccccc1/C=C1\CCCC2=C1Nc1nnnn1C2c1ccccc1F (stereo unspecified)	inconclusive: 89.1 µM [inhibitor, partial curve, poor fit]	–
O=[N+]([O-])c1cc(/C=N/O)ccc1Sc1ccccc1	–	inactive: 13.9%
OC1CCNC(=S)N1c1ccccc1 (stereo unspecified)	inconclusive: 79.4 µM [inhibitor, single point]	–
C/C(Cl)=C/Cn1c(SCc2ccc(Cl)cc2)nc2c1c(=O)[nH]c(=O)n2C	inconclusive: 70.8 µM [inhibitor, single point]	–
O=c1c(-c2ccc(F)cc2)[n+]([O-])c2ccccc2n1OCc1ccccn1	inconclusive: 25.1 µM [inhibitor, single point]	–
CN1CCc2nc(SCC(=O)Nc3cccc(F)c3)c(C#N)c(-c3cccs3)c2C1	inconclusive: 89.1 µM [inhibitor, partial curve, poor fit]	–
CCOC(=O)C1CCCN(C2CC(=O)N(c3cccc(C)c3)C2=O)C1 (stereo unspecified)	inconclusive: 70.8 µM [inhibitor, partial curve, poor fit]	–
COc1cccc(C(=O)NN/C(C)=C/C(=O)C(F)(F)C(F)(F)C(F)(F)F)c1	inconclusive: 89.1 µM [inhibitor, single point]	–
Cc1ccc(S(=O)(=O)N2CCN(C(=O)Cc3ccccc3)CC2)cc1C	inconclusive: 3.16 µM [inhibitor, partial curve, poor fit]	–

Compound	Potency	max response, negative = inhibition
CC(C)(C)c1ccc(/C=N/Nc2ccc(C(=O)O)cc2)cc1	–	inactive: 3.86%
Cn1c(=O)n(C)c2cc(CNCc3ccc(F)cc3)ccc21	–	inactive: 21.5%
OC[C@@H]1[C@@H](c2ccc(Cl)cc2)C(c2ccccc2)=NN1c1ccccc1	inconclusive: 112 µM [inhibitor, single point]	–
CCOC(=O)c1ccc(N2C(=O)c3n[nH]c(C)c3C2c2ccc(O)c(OC)c2)cc1 (stereo unspecified)	inconclusive: 79.4 µM [inhibitor, partial curve, poor fit]	–
Cc1cc(C)nc(N/N=C/C2=C(N3CCOCC3)C(=C\c3ccc(Cl)cc3)/CC2)n1	inconclusive: 89.1 µM [inhibitor, partial curve, poor fit]	–
Cc1ccc(C)c(/C=C2\N=C(c3ccccc3F)OC2=O)c1	active: 79.4 µM	–
O=C(CSc1nccn1-c1ccc(Cl)cc1)N1CCCc2ccccc21	–	inactive: 0.73%
C[C@H](NC(=O)c1ccco1)C(=O)NCCc1ccc(S(N)(=O)=O)cc1	inconclusive: 28.2 µM [inhibitor, partial curve, poor fit]	–
CCCOC(=O)c1c(N)sc2c1CCC2	–	inactive: -12.5%
O=C(c1cc(COc2ccc(F)cc2Cl)on1)N1CCCCCCC1	inconclusive: 39.8 µM [inhibitor, single point]	–
O=C(CSc1c2c(nc3ccc(Cl)cc13)CCCC2)N1CCN(C(=O)c2ccco2)CC1	inconclusive: 56.2 µM [inhibitor, single point]	–
Cc1ccc(N=C2S/C(=C/c3cccc(OCC(=O)O)c3)C(=O)N2C)cc1C	inconclusive: 70.8 µM [inhibitor, single point]	–
COc1cccc(C(=O)Nc2ccc(NC(=O)Cc3ccccc3)cc2)c1	inconclusive: 0.631 µM [inhibitor, full curve, poor fit]	–
COc1ccccc1NC(=O)C(C)OC(=O)CCCc1c[nH]c2ccccc12 (stereo unspecified)	inconclusive: 89.1 µM [inhibitor, single point]	–
Cc1c(CNC2CCCCCC2)c(C(=O)O)c(C)n1Cc1c(F)cccc1Cl	–	inactive: 10.1%
O=c1n(Cc2ccc(F)cc2Cl)c2ccccc2c2nc(-c3ccccc3)nn12	–	inactive: 7.16%
CCCC(NC(=O)CCl)c1ccccc1 (stereo unspecified)	–	inactive: -17.1%
CN(C)C(CNC(=O)c1cccc(S(=O)(=O)Nc2ccc(SC(F)F)cc2)c1)c1ccccc1 (stereo unspecified)	inconclusive: 89.1 µM [inhibitor, single point]	–
COC(=O)c1ccc(C2NC(C(=O)O)CS2)cc1 (stereo unspecified)	inconclusive: 70.8 µM [inhibitor, partial curve]	–
Cc1cc(-c2ccc(N=Nc3ccc4c(S(=O)(=O)O)cc(S(=O)(=O)O)c(N)c4c3O)c(C)c2)ccc1N=Nc1ccc2c(S(=O)(=O)O)cc(S(=O)(=O)O)c(N)c2c1O	inconclusive: 7.94 µM [inhibitor, partial curve, poor fit]	–
O=C1C(=O)N(CC2COc3ccccc3O2)c2ccccc21 (stereo unspecified)	inconclusive: 70.8 µM [inhibitor, partial curve]	–
CCC(C)(C)n1nnnc1C(c1ccc(O)c(OC)c1)N1CCc2ccccc2C1 (stereo unspecified)	inconclusive: 20 µM [inhibitor, full curve, poor fit]	–

For reference, part of the list above.
Compound	Potency	max response, negative = inhibition
Cc1ccc(N=C2S/C(=C/c3cccc(OCC(=O)O)c3)C(=O)N2C)cc1C	inconclusive: 70.8 µM [inhibitor, single point]	–
COc1cccc(C(=O)Nc2ccc(NC(=O)Cc3ccccc3)cc2)c1	inconclusive: 0.631 µM [inhibitor, full curve, poor fit]	–
COc1ccccc1NC(=O)C(C)OC(=O)CCCc1c[nH]c2ccccc12 (stereo unspecified)	inconclusive: 89.1 µM [inhibitor, single point]	–
Cc1c(CNC2CCCCCC2)c(C(=O)O)c(C)n1Cc1c(F)cccc1Cl	–	inactive: 10.1%
